The target in the experiment is T1, human CD300f (human) (UniProt Q8TDQ1).
T1 sequence (looked up): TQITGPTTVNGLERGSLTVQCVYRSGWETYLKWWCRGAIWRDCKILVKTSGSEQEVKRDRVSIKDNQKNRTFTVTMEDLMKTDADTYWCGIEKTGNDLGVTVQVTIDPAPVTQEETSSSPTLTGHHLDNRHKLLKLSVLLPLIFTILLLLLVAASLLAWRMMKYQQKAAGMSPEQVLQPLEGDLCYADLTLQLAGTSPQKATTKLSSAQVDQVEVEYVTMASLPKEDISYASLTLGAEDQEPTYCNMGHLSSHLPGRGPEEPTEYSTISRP
As to the kind of experiment: flow cytometry on U937 cells (cell surface CD300f). For orientation: In flow cytometry, cells or beads pass a laser one at a time.

Results are given in words; binding and its absence hold for the method and conditions named. Some results given as binding are weak or reduced against the parent protein; the word gives no strength.

These results are taken from US20230031629A1.

B1: chimeric DCR-2 (antibody, human IgG1, kappa, V domains shown)
VH: ESGPMESGGGLVQPGGPLKLSCAASGFGFSGSWMSWVRQAPGKGLEWIGQINPDSSTINYTPSLKDKFIISRDNAKNTLYLQINKVRSEDTALYYCARRGFFEGYSAWFAYWGQGTLVTVSA
VL: DILMTQTPKFLLVSAGDRVTITCKASQSVSNDVAWYQQKPGQSPSLLIYYASNRNTGVPDRFTGSGYETDFTFTISTVQAEDLAVYFCQQDYTSPWTFGGGTKLEIKR
Take B1: the binding entry was “binds”.
